{"source": "paper PMC8677339", "biological_target": "ZO-1 (bovine (endogenous in primary bovine retinal endothelial cells))", "test": "co-IP; co-immunoprecipitation of endogenous protein in primary bovine retinal endothelial cells (BREC); interaction most abundant with VEGF/norrin co-stimulation", "note": "No constants are given. Whether binding was seen depends on the method and setting. In cells and extracts the contact can be indirect. Binding can be weak; no strength is given.", "data": [{"binder": "disheveled-1 (Dvl1) (protein, UniProt F1N6M9 1-647) MPSCPASTAVWSPGWFWLRVLTRMQGLRALMDTQTCPRLLSGQVASGTPGLPPSTRMWPAAAMGWITRLARSHWSATGGSEPDAGTVKRGIPWPGPVPAVPTAARTNGHPRGDRRRDLGLPPDSASTVLSSELESSSFIDSDEDDNTSRLSSSTEQSTSSRLIRKHKRRRRKQRLRQTDRASSFSSITDSTMSLNIITVTLNMERHHFLGISIVGQSNDRGDGGIYIGSIMKGGAVAADGRIEPGDMLLQVNDVNFENMSNDDAVRVLREIVSQTGPISLTVAKCWDPTPRSYFTIPRADPVRPIDPAAWLSHTAALTGALPRYGTSPCSSAVTRTSSSSLTSSVPGAPQLEEAPLTVKSDMGAVVRVMQLPDSGLEIRDRMWLKITIANAVIGADVVDWLYAHLEGFRERREARKYASSMLKRGFLRHTVNKVTFSEQCYYVFGDLCSNLAALNLNSGSSGASDQDTLAPLPHPAAPWPLGQGYPYQYPGPPPCFPPAYQDPGFGYGSGSAGSQQSEGSKSSGSTRSAGGSSRRALGREKESRSAGAGGSGSESDHTVPSGAGGSGWRERPPSQLSRGSSPRSQASAAAPGLPPLHPLTKAYSVVGGPPGGPPVRELAAVPPELTGSRQSFQKAMGNPCEFFVDIM", "values": [{"measurement": "binding", "result": "binds"}]}]}
